These are yes or no findings as the source states them, for the method shown. Binding seen in cells or lysates may run through a third protein. Some results given as binding are weak or reduced against the parent protein; the word gives no strength. Sequences can lack the tags named with a protein.

Sequences of proteins named here, by UniProt entry; tags and fusion partners are left off.
UniProt P9WJF3: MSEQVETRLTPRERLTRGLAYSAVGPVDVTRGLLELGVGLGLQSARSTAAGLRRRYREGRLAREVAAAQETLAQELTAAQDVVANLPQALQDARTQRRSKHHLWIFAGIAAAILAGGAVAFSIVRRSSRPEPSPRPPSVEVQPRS

The test deals with T1, CwlM fused to a dihydrofolate reductase domain (M-PFC) (M. tuberculosis) (UniProt L7N653).
T1 sequence: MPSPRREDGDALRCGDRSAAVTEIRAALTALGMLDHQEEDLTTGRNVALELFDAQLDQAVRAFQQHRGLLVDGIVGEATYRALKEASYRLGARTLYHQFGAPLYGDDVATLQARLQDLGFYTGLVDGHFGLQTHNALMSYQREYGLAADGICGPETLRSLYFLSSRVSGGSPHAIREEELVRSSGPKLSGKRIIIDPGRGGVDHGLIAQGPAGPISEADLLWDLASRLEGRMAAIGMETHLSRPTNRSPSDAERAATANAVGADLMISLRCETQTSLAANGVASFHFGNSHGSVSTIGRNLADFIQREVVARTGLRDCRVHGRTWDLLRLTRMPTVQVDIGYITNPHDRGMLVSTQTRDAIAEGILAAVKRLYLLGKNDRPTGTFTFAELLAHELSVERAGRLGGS
The experiment in a line: split reporter; mycobacterial protein fragment complementation (M-PFC), fusions with dihydrofolate reductase domains in M. smegmatis, spotted on 7H10 plates with hygromycin, kanamycin and trimethoprim.

On to “CwsA fused to a dihydrofolate reductase domain (M-PFC) (from UniProt P9WJF3 1-145)”, for which the binding result is listed as “binds”.

B1: FhaA fused to a dihydrofolate reductase domain (M-PFC) (protein, UniProt P71590 1-527)
chain: MGSQKRLVQRVERKLEQTVGDAFARIFGGSIVPQEVEALLRREAADGIQSLQGNRLLAPNEYIITLGVHDFEKLGADPELKSTGFARDLADYIQEQGWQTYGDVVVRFEQSSNLHTGQFRARGTVNPDVETHPPVIDCARPQSNHAFGAEPGVAPMSDNSSYRGGQGQGRPDEYYDDRYARPQEDPRGGPDPQGGSDPRGGYPPETGGYPPQPGYPRPRHPDQGDYPEQIGYPDQGGYPEQRGYPEQRGYPDQRGYQDQGRGYPDQGQGGYPPPYEQRPPVSPGPAAGYGAPGYDQGYRQSGGYGPSPGGGQPGYGGYGEYGRGPARHEEGSYVPSGPPGPPEQRPAYPDQGGYDQGYQQGATTYGRQDYGGGADYTRYTESPRVPGYAPQGGGYAEPAGRDYDYGQSGAPDYGQPAPGGYSGYGQGGYGSAGTSVTLQLDDGSGRTYQLREGSNIIGRGQDAQFRLPDTGVSRRHLEIRWDGQVALLADLNSTNGTTVNNAPVQEWQLADGDVIRLGHSEIIVRMH
As for B1, the binding result was “binds”.
